Measurements from the supplement of paper PMC11732987, “Enantioselective OTUD7B fragment discovery through chemoproteomics screening and high-throughput optimisation” (Communications Chemistry, 2025).
The list shows a part of the results. The data scatter; read single values as rough.

Amino acid sequences for entries named in this document (tags omitted). A change or cut given only in a name is not applied to a line headed by its entry. Residues count along the entry.
UniProt P09110, 217-237: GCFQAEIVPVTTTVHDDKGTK
UniProt Q9NX38: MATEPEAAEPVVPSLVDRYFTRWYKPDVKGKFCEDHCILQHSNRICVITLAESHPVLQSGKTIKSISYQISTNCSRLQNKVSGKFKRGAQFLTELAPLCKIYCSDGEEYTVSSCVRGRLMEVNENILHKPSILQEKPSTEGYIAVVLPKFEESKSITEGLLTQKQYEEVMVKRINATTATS
UniProt Q15057: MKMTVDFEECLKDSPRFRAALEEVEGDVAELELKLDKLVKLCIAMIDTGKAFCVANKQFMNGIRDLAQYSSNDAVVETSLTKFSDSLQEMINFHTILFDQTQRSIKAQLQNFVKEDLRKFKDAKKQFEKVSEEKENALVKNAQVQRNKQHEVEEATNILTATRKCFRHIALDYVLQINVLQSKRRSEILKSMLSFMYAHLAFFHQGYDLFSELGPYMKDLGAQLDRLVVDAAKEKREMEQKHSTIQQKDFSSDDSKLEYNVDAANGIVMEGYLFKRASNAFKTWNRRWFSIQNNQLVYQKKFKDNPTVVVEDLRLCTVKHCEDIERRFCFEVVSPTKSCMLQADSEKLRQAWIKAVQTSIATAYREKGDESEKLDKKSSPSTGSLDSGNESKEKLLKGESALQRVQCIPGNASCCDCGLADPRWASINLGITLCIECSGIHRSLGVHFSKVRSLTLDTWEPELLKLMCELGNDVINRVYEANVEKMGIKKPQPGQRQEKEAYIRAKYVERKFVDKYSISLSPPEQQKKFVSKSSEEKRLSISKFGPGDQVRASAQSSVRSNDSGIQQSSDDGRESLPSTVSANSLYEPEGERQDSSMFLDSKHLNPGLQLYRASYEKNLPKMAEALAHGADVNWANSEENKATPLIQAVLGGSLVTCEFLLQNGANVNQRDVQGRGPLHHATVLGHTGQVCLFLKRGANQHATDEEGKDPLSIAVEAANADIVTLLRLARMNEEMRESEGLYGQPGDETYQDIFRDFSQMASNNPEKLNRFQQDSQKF
UniProt Q5T3U5: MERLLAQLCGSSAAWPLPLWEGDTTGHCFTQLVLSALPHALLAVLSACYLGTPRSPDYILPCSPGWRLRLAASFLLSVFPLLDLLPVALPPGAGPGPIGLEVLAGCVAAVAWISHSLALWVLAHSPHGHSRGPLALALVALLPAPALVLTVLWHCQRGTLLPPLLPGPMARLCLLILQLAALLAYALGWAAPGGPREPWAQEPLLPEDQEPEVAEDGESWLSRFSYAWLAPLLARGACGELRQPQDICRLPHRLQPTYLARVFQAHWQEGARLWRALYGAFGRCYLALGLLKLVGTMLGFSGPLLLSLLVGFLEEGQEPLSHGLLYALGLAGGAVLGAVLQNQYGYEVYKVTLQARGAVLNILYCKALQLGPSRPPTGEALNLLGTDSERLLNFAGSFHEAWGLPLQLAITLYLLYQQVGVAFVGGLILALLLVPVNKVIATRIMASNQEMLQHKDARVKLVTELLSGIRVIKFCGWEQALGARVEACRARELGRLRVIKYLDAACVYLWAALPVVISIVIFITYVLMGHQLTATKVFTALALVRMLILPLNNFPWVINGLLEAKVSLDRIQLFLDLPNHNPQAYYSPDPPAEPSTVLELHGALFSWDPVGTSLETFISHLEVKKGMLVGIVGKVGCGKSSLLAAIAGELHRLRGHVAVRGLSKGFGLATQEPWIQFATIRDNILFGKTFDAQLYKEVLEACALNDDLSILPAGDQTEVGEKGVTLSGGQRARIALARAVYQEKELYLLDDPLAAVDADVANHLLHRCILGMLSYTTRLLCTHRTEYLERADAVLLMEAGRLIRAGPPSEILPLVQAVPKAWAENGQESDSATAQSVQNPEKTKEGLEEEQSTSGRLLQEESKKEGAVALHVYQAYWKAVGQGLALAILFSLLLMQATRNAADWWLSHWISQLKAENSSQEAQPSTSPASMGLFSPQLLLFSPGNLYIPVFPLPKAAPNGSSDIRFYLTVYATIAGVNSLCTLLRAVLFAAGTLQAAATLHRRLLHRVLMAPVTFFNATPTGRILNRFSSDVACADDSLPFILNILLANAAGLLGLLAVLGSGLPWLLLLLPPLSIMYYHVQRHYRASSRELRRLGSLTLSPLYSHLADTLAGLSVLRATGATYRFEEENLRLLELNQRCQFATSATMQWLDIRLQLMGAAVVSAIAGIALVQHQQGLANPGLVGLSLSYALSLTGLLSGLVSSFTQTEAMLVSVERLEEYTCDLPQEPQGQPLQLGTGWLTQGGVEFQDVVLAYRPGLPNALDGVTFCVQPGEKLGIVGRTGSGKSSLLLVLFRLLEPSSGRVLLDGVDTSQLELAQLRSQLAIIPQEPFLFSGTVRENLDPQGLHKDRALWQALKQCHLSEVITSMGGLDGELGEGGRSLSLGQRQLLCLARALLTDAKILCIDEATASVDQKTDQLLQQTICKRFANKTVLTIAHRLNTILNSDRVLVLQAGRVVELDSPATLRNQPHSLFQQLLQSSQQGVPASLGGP
UniProt O15440: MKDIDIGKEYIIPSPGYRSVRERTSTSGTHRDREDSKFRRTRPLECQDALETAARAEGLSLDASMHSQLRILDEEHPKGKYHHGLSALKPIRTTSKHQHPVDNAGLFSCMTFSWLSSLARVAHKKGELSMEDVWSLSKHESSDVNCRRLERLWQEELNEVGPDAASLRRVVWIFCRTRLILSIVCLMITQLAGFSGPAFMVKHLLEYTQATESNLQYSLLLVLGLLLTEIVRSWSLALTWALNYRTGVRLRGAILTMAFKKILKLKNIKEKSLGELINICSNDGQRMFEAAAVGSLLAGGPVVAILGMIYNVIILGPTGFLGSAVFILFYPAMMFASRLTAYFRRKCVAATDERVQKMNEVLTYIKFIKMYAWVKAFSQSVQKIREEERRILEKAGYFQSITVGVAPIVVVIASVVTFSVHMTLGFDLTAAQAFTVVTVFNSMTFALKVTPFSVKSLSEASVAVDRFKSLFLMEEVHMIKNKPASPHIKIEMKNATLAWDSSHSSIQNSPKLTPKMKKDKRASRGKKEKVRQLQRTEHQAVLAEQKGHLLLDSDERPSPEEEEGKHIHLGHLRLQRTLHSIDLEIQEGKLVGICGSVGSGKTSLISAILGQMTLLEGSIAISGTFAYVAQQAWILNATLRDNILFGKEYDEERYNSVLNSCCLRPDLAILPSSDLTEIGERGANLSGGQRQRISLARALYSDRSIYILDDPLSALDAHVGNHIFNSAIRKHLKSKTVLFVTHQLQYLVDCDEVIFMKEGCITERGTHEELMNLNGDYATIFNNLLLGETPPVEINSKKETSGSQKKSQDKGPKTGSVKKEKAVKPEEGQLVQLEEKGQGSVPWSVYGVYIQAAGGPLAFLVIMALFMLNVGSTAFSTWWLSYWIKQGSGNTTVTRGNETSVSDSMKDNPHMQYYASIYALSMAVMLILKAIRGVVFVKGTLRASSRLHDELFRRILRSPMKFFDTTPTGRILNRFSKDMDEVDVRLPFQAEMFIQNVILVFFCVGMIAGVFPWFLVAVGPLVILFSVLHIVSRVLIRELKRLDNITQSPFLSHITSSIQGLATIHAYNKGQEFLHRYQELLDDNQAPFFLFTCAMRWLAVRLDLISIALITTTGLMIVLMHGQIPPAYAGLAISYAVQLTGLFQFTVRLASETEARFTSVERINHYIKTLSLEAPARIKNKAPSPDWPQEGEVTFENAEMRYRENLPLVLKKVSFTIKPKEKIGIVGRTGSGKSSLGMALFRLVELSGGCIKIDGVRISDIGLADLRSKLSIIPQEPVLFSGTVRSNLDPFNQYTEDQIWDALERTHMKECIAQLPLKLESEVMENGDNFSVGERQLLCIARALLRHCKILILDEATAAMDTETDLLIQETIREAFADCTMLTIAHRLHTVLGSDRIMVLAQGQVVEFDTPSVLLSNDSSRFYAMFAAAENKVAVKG
UniProt Q9NYB9: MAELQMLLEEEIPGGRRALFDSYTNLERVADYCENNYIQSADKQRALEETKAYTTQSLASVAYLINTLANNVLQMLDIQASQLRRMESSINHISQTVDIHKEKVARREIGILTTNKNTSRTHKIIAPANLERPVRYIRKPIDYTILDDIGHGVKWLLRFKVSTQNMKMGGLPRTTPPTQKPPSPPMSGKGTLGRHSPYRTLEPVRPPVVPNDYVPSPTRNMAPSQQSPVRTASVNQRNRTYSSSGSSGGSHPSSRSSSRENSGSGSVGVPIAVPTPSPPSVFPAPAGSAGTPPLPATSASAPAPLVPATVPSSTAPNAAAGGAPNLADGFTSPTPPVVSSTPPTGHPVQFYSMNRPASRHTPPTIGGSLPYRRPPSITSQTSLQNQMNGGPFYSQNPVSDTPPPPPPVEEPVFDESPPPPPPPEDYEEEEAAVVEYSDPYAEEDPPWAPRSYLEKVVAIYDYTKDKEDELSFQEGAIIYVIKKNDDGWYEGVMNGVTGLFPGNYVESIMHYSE
UniProt Q13685: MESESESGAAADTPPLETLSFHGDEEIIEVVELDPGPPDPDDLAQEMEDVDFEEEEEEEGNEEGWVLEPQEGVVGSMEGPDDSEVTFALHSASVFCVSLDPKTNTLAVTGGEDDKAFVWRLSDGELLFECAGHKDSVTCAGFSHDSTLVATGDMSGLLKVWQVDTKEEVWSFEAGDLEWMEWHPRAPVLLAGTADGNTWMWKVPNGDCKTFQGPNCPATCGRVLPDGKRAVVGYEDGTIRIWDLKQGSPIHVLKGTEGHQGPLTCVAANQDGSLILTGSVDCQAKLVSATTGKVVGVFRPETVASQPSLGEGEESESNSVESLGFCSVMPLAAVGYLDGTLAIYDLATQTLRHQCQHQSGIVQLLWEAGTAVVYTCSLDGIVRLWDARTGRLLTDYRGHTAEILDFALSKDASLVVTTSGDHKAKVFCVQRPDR
UniProt O95870: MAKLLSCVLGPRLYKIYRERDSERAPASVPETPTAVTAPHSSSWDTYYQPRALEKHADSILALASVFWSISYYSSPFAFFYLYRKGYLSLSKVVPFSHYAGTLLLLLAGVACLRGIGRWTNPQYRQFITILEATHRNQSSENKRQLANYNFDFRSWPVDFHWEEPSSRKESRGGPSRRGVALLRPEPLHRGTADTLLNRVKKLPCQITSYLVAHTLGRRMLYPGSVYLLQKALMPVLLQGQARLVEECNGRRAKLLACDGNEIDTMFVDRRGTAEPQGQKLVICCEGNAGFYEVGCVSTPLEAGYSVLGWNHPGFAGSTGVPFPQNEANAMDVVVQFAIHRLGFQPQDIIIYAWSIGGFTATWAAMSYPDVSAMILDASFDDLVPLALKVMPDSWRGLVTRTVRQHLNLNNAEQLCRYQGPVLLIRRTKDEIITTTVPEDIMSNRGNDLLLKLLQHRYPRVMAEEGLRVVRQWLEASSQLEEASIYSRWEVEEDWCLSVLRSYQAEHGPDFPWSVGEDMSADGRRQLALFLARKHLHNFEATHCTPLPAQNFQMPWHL
UniProt P49748: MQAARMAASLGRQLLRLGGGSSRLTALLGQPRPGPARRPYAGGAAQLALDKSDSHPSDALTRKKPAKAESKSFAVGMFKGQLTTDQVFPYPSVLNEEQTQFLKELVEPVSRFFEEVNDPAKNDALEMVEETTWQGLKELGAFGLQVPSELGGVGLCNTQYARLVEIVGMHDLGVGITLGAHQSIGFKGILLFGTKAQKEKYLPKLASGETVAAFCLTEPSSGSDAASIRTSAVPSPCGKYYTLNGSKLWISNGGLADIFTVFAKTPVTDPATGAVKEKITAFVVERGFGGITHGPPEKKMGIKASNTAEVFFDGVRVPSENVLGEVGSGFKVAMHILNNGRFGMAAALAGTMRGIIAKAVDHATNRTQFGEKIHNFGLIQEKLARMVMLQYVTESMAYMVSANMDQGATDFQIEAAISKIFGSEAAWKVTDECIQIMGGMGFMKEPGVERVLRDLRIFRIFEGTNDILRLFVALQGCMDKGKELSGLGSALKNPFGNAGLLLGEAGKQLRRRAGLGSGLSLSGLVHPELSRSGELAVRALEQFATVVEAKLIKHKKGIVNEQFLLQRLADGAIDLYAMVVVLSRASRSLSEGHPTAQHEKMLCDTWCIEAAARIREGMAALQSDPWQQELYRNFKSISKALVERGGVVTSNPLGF
UniProt Q8WTS1, 298-318: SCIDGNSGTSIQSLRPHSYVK
UniProt Q8IZP0: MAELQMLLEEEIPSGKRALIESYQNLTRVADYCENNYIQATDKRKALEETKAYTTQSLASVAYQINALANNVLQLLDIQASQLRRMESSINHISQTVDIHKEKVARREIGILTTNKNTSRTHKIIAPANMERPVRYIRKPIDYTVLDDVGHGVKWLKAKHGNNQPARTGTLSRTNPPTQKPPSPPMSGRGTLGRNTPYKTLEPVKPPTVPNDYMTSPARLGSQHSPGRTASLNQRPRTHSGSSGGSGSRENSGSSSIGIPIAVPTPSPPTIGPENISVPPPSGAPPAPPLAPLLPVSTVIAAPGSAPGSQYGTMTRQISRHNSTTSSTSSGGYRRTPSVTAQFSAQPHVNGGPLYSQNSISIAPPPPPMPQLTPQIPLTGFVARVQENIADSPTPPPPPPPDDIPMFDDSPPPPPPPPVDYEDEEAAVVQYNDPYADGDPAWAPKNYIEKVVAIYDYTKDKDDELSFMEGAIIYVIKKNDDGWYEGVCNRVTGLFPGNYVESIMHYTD

These targets were tested with ClCC(=O)N[C@@H]1CCCc2ccccc12 (assay: log2 mean competition ratio of IA-DTB cysteine labelling (DMSO/compound) (log2 ratio); higher = stronger cysteine engagement by compound). Conditions: 50 µM; treatment time: 4 h; cell line lysate: HEK293T.
Experimental: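 IA-DTB competitive cysteine chemoproteomics in HEK293T RIPA lysate. Lysates were treated with compound 29 or 30 at 50 or 200 µM for 4 h, then IA-DTB (500 µM, 1 h), trypsin-digested, NeutrAvidin-enriched and analysed by diaPASEF. Competition ratio = intensity DMSO / intensity compound (n=4 treated, n=64 DMSO); binding: mean log2 CR ≥ 1 and p ≤ 0.05 plus QC filters. Target is the cysteine site.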

Target	log2 mean competition ratio
ABL2 C510 (UniProt P42684)	-0.0308
ACAA1 C177 (UniProt P09110)	-0.0827
ABCB8 C364 (UniProt Q9NUT2)	-0.0723
ABITRAM C74 (UniProt Q9NX38)	0.136
ABCB1 C1074 (UniProt P08183)	0.347
ACAP2 C321 (UniProt Q15057)	-0.005
ABCF2 C186 (UniProt Q9UG63)	-0.156
ABHD10 C100 (UniProt Q9NUJ1)	-0.39
ABCC10 C1425 (UniProt Q5T3U5)	-0.199
ACAA1 C218 (UniProt P09110)	-0.0802
ABL2 C415 (UniProt P42684)	0.0984
AASDH C736 (UniProt Q4L235)	0.0973
AARS1 C671 (UniProt H3BPK7)	-0.235
ABCF1 C655	-0.216
ACAT1 C126	0.565
ABCC5 C760 (UniProt O15440)	-0.191
ABCF2 C586 (UniProt Q9UG63)	0.0347
ACACA C407 (UniProt Q13085)	-0.0392
ABI2 C33 (UniProt Q9NYB9)	-0.0341
AAMP C208 (UniProt Q13685)	-0.00287
ABR C346 (UniProt Q12979)	0.0137
AAK1 C193	0.263
ABHD16A C248 (UniProt O95870)	-0.252
ACADVL C237 (UniProt P49748)	-0.0373
ACAP2 C329 (UniProt Q15057)	0.184
ABHD5 C299 (UniProt Q8WTS1)	-0.00156
ABCF3 C4 (UniProt Q9NUQ8)	-0.202
ABI1 C33 (UniProt Q8IZP0)	-0.18

Pulled one by one from the list above, two records:
Target	log2 mean competition ratio
ABR C346 (UniProt Q12979)	0.0137
ACAP2 C321 (UniProt Q15057)	-0.005
